{"sequences": {"note": "The chains behind the UniProt entries cited, without tags or fusion partners.", "UniProt Q0JBA9, entry or part of it": "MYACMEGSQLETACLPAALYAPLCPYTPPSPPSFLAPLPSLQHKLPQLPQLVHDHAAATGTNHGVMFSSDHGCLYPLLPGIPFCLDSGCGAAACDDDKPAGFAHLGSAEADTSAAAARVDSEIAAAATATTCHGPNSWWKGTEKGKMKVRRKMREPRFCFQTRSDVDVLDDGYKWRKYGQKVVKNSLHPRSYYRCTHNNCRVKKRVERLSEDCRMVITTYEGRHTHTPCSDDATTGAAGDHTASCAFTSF"}, "source": "paper PMC7819943", "about": "“Rice protein-binding microarrays: a tool to detect cis-acting elements near promoter regions in rice”", "note": "The other results are listed elsewhere or left out."}
{"target": "OsWRKY34 (Oryza sativa, UniProt Q0JBA9 1-250)", "test": "protein-binding microarray (RPBM); PBS, 2% BSA, 51.3 ng/ul salmon testes DNA, 50 uM zinc acetate, 200 nM TF, 25 C, 1 h; high values mean tight binding", "details": "protein: recombinant; tags: N-terminal polyhistidine and DsRed monomer fusion (pET32a); label: CyDye5-dUTP incorporated in the synthesized complementary strand; 3' TTTTT single-stranded linker to array surface; dsDNA, one strand shown", "how_it_was_run": "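Binding signal is reported as fluorescence intensity per feature (arbitrary units) from an Axon 4000B scanner. Incubation used 200 nM of each Ni–NTA-purified, N-terminally polyhistidine- and DsRed-fused transcription factor from E. coli BL21-CodonPlus on a double-stranded custom Agilent array for 1 h at 25 °C, with 50 µM zinc acetate in the buffer, followed by washing.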"}
{"sequence": "ATTCTCGCTTTGGCCCTCGTGCCCTGCGCTTATATGCATACGGAGTCACCTAGTGCAG", "binding signal": "8260 fluorescence intensity (a.u.)"}
{"sequence": "CTTCAACTACCTTTCACCCTCTTTTGGTATGCTTGATTGTCGGAGTCACCTAGTGCAG", "binding signal": "9070 fluorescence intensity (a.u.)"}
{"sequence": "AATACTCACAATTATTGTTCTTCTACAACATGTTTCACAACGGAGTCACCTAGTGCAG", "binding signal": "8180 fluorescence intensity (a.u.)"}
{"sequence": "TGTTCTGGGAGTTGATGTACTTCCTCAGGTCGGGGTTCTTCGGAGTCACCTAGTGCAG", "binding signal": "11200 fluorescence intensity (a.u.)"}
{"sequence": "ATGCTCTCTCTCGCTCTCGACGGCAATCTCCTCCGGCAAACGGAGTCACCTAGTGCAG", "binding signal": "10500 fluorescence intensity (a.u.)"}
{"sequence": "ATTATTGTGTGTGTGGGGAACTGGCCCTACGAGTTTTATTCGGAGTCACCTAGTGCAG", "binding signal": "10700 fluorescence intensity (a.u.)"}
{"sequence": "CGCACTGGCGGGGCTTGGAGCTGGGGTTTCTAGGGTTTGGCGGAGTCACCTAGTGCAG", "binding signal": "8980 fluorescence intensity (a.u.)"}
{"sequence": "AAACATCCAACGTGATACCCAAAAGTTTTCTTTGCGCAACCGGAGTCACCTAGTGCAG", "binding signal": "8240 fluorescence intensity (a.u.)"}
{"sequence": "CACCAGTCCACTTCCCTGCACATGCACCAAACCACCAATTCGGAGTCACCTAGTGCAG", "binding signal": "8190 fluorescence intensity (a.u.)"}
{"sequence": "CATAACCAACCTCGACAGCCTCCTATCGCGTTTCCTATAACGGAGTCACCTAGTGCAG", "binding signal": "8760 fluorescence intensity (a.u.)"}
{"sequence": "GAGGTGGAGGTGCGGAAAAGCCGCGGCGTTGTTGTCTTGCCGGAGTCACCTAGTGCAG", "binding signal": "9420 fluorescence intensity (a.u.)"}
{"sequence": "ATTCTTGCCGTCCAACCGCCTGCCTTGATTAATCCGTCGTCGGAGTCACCTAGTGCAG", "binding signal": "9040 fluorescence intensity (a.u.)"}
{"sequence": "CTAATTGAACGGTCAATTCTTACCCATTCATGGTTCGATTCGGAGTCACCTAGTGCAG", "binding signal": "8350 fluorescence intensity (a.u.)"}
{"sequence": "TCCATCGTTCCCTTTGTAACCTGTATTTTCCACCATATAACGGAGTCACCTAGTGCAG", "binding signal": "14500 fluorescence intensity (a.u.)"}
{"sequence": "GTGCTGATCCATTTGCCGCATGCTGGTGAGCTAACGTGACCGGAGTCACCTAGTGCAG", "binding signal": "9820 fluorescence intensity (a.u.)"}
{"sequence": "ATTCGAATTTCTCTCTCTCTCTCTCTAGTCTCTATAAACACGGAGTCACCTAGTGCAG", "binding signal": "8510 fluorescence intensity (a.u.)"}
{"sequence": "GGCGGGTGGCTGCTCGCCGGACATGGTGGGTGGGTGCGTGCGGAGTCACCTAGTGCAG", "binding signal": "9310 fluorescence intensity (a.u.)"}
{"sequence": "TATTGCACCTTTTCTCTATTGTTTTGAATTCAGTGAAGATCGGAGTCACCTAGTGCAG", "binding signal": "11600 fluorescence intensity (a.u.)"}
{"sequence": "CGCCTCCGTCTCTTCGCCCTATAAAACCAACGCGCTTCTCCGGAGTCACCTAGTGCAG", "binding signal": "9420 fluorescence intensity (a.u.)"}
{"sequence": "CTCTGCAATCCCCACGCCGCCGCCTCCTCATTCCTTCCCGCGGAGTCACCTAGTGCAG", "binding signal": "8840 fluorescence intensity (a.u.)"}
{"sequence": "GCTTAGATTAAATCCTTTTTGTAACTGTACATTTTATATACGGAGTCACCTAGTGCAG", "binding signal": "10400 fluorescence intensity (a.u.)"}
{"sequence": "AATCGCGTATCTGTGCACGTCCGTCTGGCCGAACGACTTCCGGAGTCACCTAGTGCAG", "binding signal": "8330 fluorescence intensity (a.u.)"}
{"sequence": "TACCAGTAGATGTTTACTCCCTGTTTACAAGTCAATCATACGGAGTCACCTAGTGCAG", "binding signal": "8210 fluorescence intensity (a.u.)"}
{"sequence": "GGTGGTTAGAGCCAGGGGAGGGAGGGCGGTAGCGGTCGTTCGGAGTCACCTAGTGCAG", "binding signal": "14300 fluorescence intensity (a.u.)"}
{"sequence": "GGAAAACTCTCTCGTAACCTTTGTGTTTTTTTTTCTATCTCGGAGTCACCTAGTGCAG", "binding signal": "8330 fluorescence intensity (a.u.)"}
{"sequence": "GATCACCATCCGCTCATCATACCATCGCCATTTTGCCCGTCGGAGTCACCTAGTGCAG", "binding signal": "9210 fluorescence intensity (a.u.)"}
{"sequence": "TCATGGCGCATTTAGGCTTAAAAGATTTGTCTCGCAATTTCGGAGTCACCTAGTGCAG", "binding signal": "9310 fluorescence intensity (a.u.)"}
{"sequence": "ACTGGTGACAAGTACATCACCTTGATTTCTTCTTTTTTTTCGGAGTCACCTAGTGCAG", "binding signal": "9690 fluorescence intensity (a.u.)"}
{"sequence": "ATAGCCCTATCATTTCGATTGTTTTTACGCATATAAACTACGGAGTCACCTAGTGCAG", "binding signal": "8100 fluorescence intensity (a.u.)"}
{"sequence": "CTTCCGCTTCCGCCTACCTCACCTCACCTTAGCTCACACGCGGAGTCACCTAGTGCAG", "binding signal": "13200 fluorescence intensity (a.u.)"}
{"sequence": "CCTGATCGGATTTGGTTGGCTGGTGCTCTAGATGATGTACCGGAGTCACCTAGTGCAG", "binding signal": "8170 fluorescence intensity (a.u.)"}
{"sequence": "GTTTGGTCATTGACTTCAGCAGGTCTTCTCTCTTTGTCTCCGGAGTCACCTAGTGCAG", "binding signal": "9670 fluorescence intensity (a.u.)"}
{"sequence": "CACCTACAACCGTATTATCTCATATTTCACATGATCTCCTCGGAGTCACCTAGTGCAG", "binding signal": "8540 fluorescence intensity (a.u.)"}
{"sequence": "AACGTCTCCACCAAGCTTTGTCGATCACCTCCATGCTTTCCGGAGTCACCTAGTGCAG", "binding signal": "10200 fluorescence intensity (a.u.)"}
{"sequence": "TATTTTGTAATCATTTGTTTTATATTTGAATTCCTGTCAGCGGAGTCACCTAGTGCAG", "binding signal": "8590 fluorescence intensity (a.u.)"}
{"sequence": "AATCCTTAAAATCATTCAAACCTTTTGTTCACCCACGTTTCGGAGTCACCTAGTGCAG", "binding signal": "8760 fluorescence intensity (a.u.)"}
{"sequence": "GGTTTCCGTGTCCAACGTTTGACTGTCCGTCTTATATGAACGGAGTCACCTAGTGCAG", "binding signal": "8590 fluorescence intensity (a.u.)"}
{"sequence": "TGCTCAACATCCATCTTTCTTTCTTTCTTTTTCTCTTTTTCGGAGTCACCTAGTGCAG", "binding signal": "11300 fluorescence intensity (a.u.)"}
{"sequence": "AAGATTTTTAGTGCATCATCAAACAGTATCGTCTCTAGAACGGAGTCACCTAGTGCAG", "binding signal": "8350 fluorescence intensity (a.u.)"}
{"sequence": "GTCACCTCTTCTAATATTTCTTATTTTTTAATTCCGAATTCGGAGTCACCTAGTGCAG", "binding signal": "10200 fluorescence intensity (a.u.)"}
{"sequence": "GATTAATATGTCTCTTCCGCACTACATCCCCACCCACATTCGGAGTCACCTAGTGCAG", "binding signal": "10700 fluorescence intensity (a.u.)"}
{"sequence": "CCCGTACTACTTATCACATCAGTTCATCTTATCCTCAATTCGGAGTCACCTAGTGCAG", "binding signal": "10900 fluorescence intensity (a.u.)"}
